# US7465582B1, “Nurr-1 induction of a dopaminergic neuronal fate in a neural stem cell or neural progenitor cell in vitro” (Neuro Therapeutics AB, priority 2000, dated 2008)
# At least one structure is not confirmed: it was looked up by name or label, or the drawing left a doubt. Some entries share one result that the patent states for a list of compounds.
# Columns and labels:
# Nurr1-C17.2 clone 42 = assay: Co-culture of Nurr1-C17.2 clone 42 with primary E16 ventral mesencephalic cells; TH expression; assay type: cell-based, mouse; details: added to co-cultures in serum free media; SR11237 to 1 μM, bFGF to 10 ng/ml, each alone
# Protocol: C17.2 neural stem cells (Snyder, E. Y. et al. Cell 68, 33-51 (1992)) were maintained and passaged as previously described (Snyder, E. Y. et al. Cell 68, 33-51 (1992)). Ventral mesencephala from E16 rat embryos were dissected, mechanically dissociated and plated at a final density of 1×10^5 cells/cm^2 on poly-D-lysine coated culture wells in a defined, serum-free medium (N^2, consisting of a 1:1 mixture of F12 and DMEM containing insulin (10 ng/ml), transferrin (100 μg/ml), putrescine (100 μM), progesterone (20 nM), selenium (30 nM) glucose (6 mg/ml), and bovine serum albumin (1 mg/ml)). After 24 hours in vitro, co-cultures were initiated by directly plating 2.5−5×10^4 C17.2-derived cells into the primary cultures; all ages of cultures given use this point as 0 DIV. […]
# (§1) Fixed cultures were incubated with one of the following antibodies, diluted appropriately in phosphate-buffered saline (PBS) containing 1% bovine serum albumin and 0.3% Triton-X 100: mouse anti-BrdU, 1:50 (DAKO, Denmark), mouse anti-β-tubulin, Type III (TuJ1), 1:250 (Sigma), mouse anti-TH, 1:1000 (Incstar, USA), rabbit anti-β-galactosidase, 1:250 (Cappel, USA) rabbit anti-GFAP, 1:500 (DAKO, Denmark), rabbit anti-AHD-2, 1:4000. […] Quantitative immunocytochemical data represent means and standard errors from 100-500 cells counted in each of 3-6 separate wells from 2-4 experiments. […]
# [1] = tested on: Nurr1 over-expressing C17.2 clones; assay: Treatment of Nurr1 clones with trophic factors, mitogens, cytokines and other agents; TH immunoreactivity; assay type: cell-based, mouse; details: Nurr1 clones without co-culture; factors alone or combined
# From the text: C17.2 cells were cotransfected with a CMX-Nurr1 expression vector (Perlmann, T. et al. Genes Dev. 9, 769-782 (1995)) and PGK-puromycin resistance plasmids (Nurr1 clones) or a PGK-puromycin alone (mock clones). For reporter assays, C17.2 parental cells were transfected with the Nurr1 expression vector, the reporter plasmid (NGFIB-binding response element (NBRE) triplet upstream of TK minimal promoter fused to firefly luciferase) and a pRSV-alkaline phosphatase plasmid at a 2:1:2 ratio.
# C17.2 neural stem cells (Snyder, E. Y. et al. Cell 68, 33-51 (1992)) were maintained and passaged as previously described (Snyder, E. Y. et al. Cell 68, 33-51 (1992)). […]
# as §1
SMILES,"TH expression, % of the Nurr1-C17.2 clone 42 population (Nurr1-C17.2 clone 42)",induction of TH expression [1]
CC1(C)CCC(C)(C)c2cc(C3(c4ccc(C(=O)O)cc4)OCCO3)ccc21 [SR11237],40-60%,
"C=C[C@@]1(C)CC(=O)[C@]2(O)[C@@]3(C)[C@@H](O)CCC(C)(C)[C@@H]3[C@H](O)[C@H](OC(C)=O)[C@@]2(C)O1 [forskolin, reference compound]",,None of these factors induced TH expression in any of the clones
"CC1=C(/C=C/C(C)=C/C=C/C(C)=C/C(=O)O)C(C)(C)CCC1 [retinoic acid, reference compound]",,None of these factors induced TH expression in any of the clones
